# Patent US20240390293A1, “DERIVATIVES OF THE PROTECTIN 10S,17S-DIHDA (PDX) AND USE THEREOF AS ANTIVIRAL, ANTI-INFLAMMATORY, AND ANTI-DIABETIC AGENTS” (priority 2021, published 2024)
# At least one structure is not confirmed: it was looked up by name or label, or the drawing left a doubt.
# System: SARS-CoV-2
# Assay: SARS-CoV-2 infected hamsters: viral titers and weight variation
# Format: in vivo, Golden Syrian hamsters
# Settings: Remdesivir 15 mg/kg IP on days 1, 2 and 3 post-infection; days 3 to 15
# Experimental: Animal Studies. 5-6 Week-old Golden Syrian hamsters were infected with 4.5 log PFU of original SARS-CoV-2 strain. On days 1, 2 and 3, or 1 to 5 post-infection, the animals were treated intraperitoneally with either Remdesivir (15 mg/kg), analog RM-598-48 (50 mg/kg), Remdesivir (15 mg/kg)+analog RM-598-48 (50 mg/kg), analog RM-598-44 (50 mg/kg), or with vehicle only (FIG. 28). The hamsters were monitored daily over a period of 14 days for clinical symptoms and weight loss. On day 4 post-infection, nasal turbinates and lungs were harvested to assess viral replication. All animal studies were approved by the Animal Protection Committee of the Centre Hospitalier Universitaire de Québec according to the Canadian Council on Animal Care guidelines.
# Viral titers. Viral titers were determined in cell culture to characterize the presence of live virus. Ten-fold dilutions of nasal turbinates and lung homogenates were performed in infection medium. After one week of infection, titers were determined and reported in TCID50 per gram of organ.
smiles,measurement,value
"CCC(CC)COC(=O)[C@H](C)N[P@](=O)(OC[C@H]1O[C@@](C#N)(c2ccc3c(N)ncnn23)[C@H](O)[C@@H]1O)Oc1ccccc1 [Remdesivir, reference compound]","weight loss (weight variation, % of initial weight)",significantly limits weight loss
